In PMC3577899:

Target: GST-tagged S61A N-terminal PSI truncation (first 95 amino acids) (Drosophila)
Assay: pull-down; GST-PSI(1-95) baits on glutathione-sepharose beads, with ATP and with or without pre-phosphorylation by human casein kinase II, incubated with 100 uL Kc nuclear extract at 4°C for 3 hrs; washes 20 mM Tris-HCl pH 8.0, 200 mM NaCl, 0.02% NP-40; glutathione eluates analysed by SDS-PAGE, silver staining and mass spectrometry; only the target purified

B1: Recombination Repair Protein 1 (Rrp1) (protein, UniProt P27864 1-679)
chain: MPRVKAVKKQAEALASEPTDPTPNANGNGVDENADSAAEELKVPAKGKPRARKATKTAVSAENSEEVEPQKAPTAAARGKKKQPKDTDENGQMEVVAKPKGRAKKATAEAEPEPKVDLPAGKATKPRAKKEPTPAPDEVTSSPPKGRAKAEKPTNAQAKGRKRKELPAEANGGAEEAAEPPKQRARKEAVPTLKEQAEPGTISKEKVQKAETAAKRARGTKRLADSEIAAALDEPEVDEVPPKAASKRAKKGKMVEPSPETVGDFQSVQEEVESPPKTAAAPKKRAKKTTNGETAVELEPKTKAKPTKQRAKKEGKEPAPGKKQKKSADKENGVVEEEAKPSTETKPAKGRKKAPVKAEDVEDIEEAAEESKPARGRKKAAAKAEEPDVDEESGSKTTKKAKKAETKTTVTLDKDAFALPADKEFNLKICSWNVAGLRAWLKKDGLQLIDLEEPDIFCLQETKCANDQLPEEVTRLPGYHPYWLCMPGGYAGVAIYSKIMPIHVEYGIGNEEFDDVGRMITAEYEKFYLINVYVPNSGRKLVNLEPRMRWEKLFQAYVKKLDALKPVVICGDMNVSHMPIDLENPKNNTKNAGFTQEERDKMTELLGLGFVDTFRHLYPDRKGAYTFWTYMANARARNVGWRLDYCLVSERFVPKVVEHEIRSQCLGSDHCPITIFFNI
  binding: binds

No constants are given. Whether binding was seen depends on the method and setting. In cells and extracts the contact can be indirect. Binding calls can cover weak binding; strength is not graded here.
